Source: US20080234385A1, “Method For Inhibiting Tnf-Alpha” (CARITAS ST. ELIZABETH'S MEDICAL CENTER, priority 2005, published 2008)
Some results were stated once for a whole list of compounds, not compound by compound. At least one structure is not confirmed: it was looked up by name or label, or the drawing left a doubt. Some compounds share one range, which may span the group rather than tell each member.

System: LPS-stimulated TNF-α production
Experiment: LPS-stimulated TNF-α production by THP-1-derived monocytes (ELISA)
Assay type: cell-based, human
Conditions: differentiated THP-1 cells, endotoxin 10 ng/ml, rising concentrations 0-400 μM, 24 hours, supernatant ELISA (FIG. 1 and FIG. 2)
Protocol: The human promonocytic THP-1 cell line (American Type Culture Collection, Manassas, Va.) was maintained in suspension culture at 0.25×10^6 cells/ml in RPMI-1640 medium supplemented with 2 mM L-glutamine, 10% fetal bovine serum and 0.05 mM 2-mercaptoethanol in a humidified atmosphere of 5% CO2 in air at 37° C. Differentiation to monocytes (0.25×10^6 cells/ml) was induced by incubating cells with trans-retinoic acid (1 μM), 1.25 dihydroxy cholecalciferol (0.1 μM) and interferon-γ (0.01 mg/l) (Sigma, St. Louis, Mo.). After 3 days, cells were detached using trypsin-EDTA, washed in PBS, and 1×10^6 cells were used for each experimental condition.
Differentiated THP-1 cells were co-incubated with 10 ng/ml of purified Escherichia coli endotoxin (serotype O55: B5, Sigma Chemical Co.) and rising concentrations (0-400 μM) of either melatonin, N-acetyldopamine (NAD) or N-methyldopamine (NMD) or 3-hydroxy-4-methoxy-dopamine (HMP) (Sigma) in RPMI-1640 cell culture medium at 37° C. in a humidified atmosphere supplemented with 5% CO2. After 24-hour incubation, cell supematants were harvested, and TNF-α was measured by a sandwich enzyme linked immunosorbent assay (ELISA), according to the manufacturer's instructions (Quantikine®, R & D systems, Minneapolis, Minn., USA). The lower limit of detection for TNF-α was 1.6 pg/ml. The average intra-assay coefficient of variation for TNF-α was 5%.

Row | Structure (SMILES) | inhibition of LPS-stimulated TNF-α production compared with control [%]
1 | CC(=O)NCCc1ccc(O)c(O)c1 [NAD, N-acetyldopamine] | 96 to 98
2 | CC(=O)NCCc1c[nH]c2ccc(O)cc12 [NAS, N-acetyl-serotonin, reference compound] | 96 to 98
3 | COc1ccc2[nH]cc(CCNC(C)=O)c2c1 [melatonin, reference compound] | 96 to 98
